Patent US6596500B1, “Binding of retinoids to M6P/IGF-II receptor” (The General Hospital Corporation, priority 1998, dated 2003)
At least one compound was matched to its structure with a doubt left.

Chains of the proteins cited; added tags and fusions are not shown. Lines headed by an entry give the natural chain unless they say otherwise; changes in a name come on top. Residues count along the entry.
UniProt G3V824, 36-2481: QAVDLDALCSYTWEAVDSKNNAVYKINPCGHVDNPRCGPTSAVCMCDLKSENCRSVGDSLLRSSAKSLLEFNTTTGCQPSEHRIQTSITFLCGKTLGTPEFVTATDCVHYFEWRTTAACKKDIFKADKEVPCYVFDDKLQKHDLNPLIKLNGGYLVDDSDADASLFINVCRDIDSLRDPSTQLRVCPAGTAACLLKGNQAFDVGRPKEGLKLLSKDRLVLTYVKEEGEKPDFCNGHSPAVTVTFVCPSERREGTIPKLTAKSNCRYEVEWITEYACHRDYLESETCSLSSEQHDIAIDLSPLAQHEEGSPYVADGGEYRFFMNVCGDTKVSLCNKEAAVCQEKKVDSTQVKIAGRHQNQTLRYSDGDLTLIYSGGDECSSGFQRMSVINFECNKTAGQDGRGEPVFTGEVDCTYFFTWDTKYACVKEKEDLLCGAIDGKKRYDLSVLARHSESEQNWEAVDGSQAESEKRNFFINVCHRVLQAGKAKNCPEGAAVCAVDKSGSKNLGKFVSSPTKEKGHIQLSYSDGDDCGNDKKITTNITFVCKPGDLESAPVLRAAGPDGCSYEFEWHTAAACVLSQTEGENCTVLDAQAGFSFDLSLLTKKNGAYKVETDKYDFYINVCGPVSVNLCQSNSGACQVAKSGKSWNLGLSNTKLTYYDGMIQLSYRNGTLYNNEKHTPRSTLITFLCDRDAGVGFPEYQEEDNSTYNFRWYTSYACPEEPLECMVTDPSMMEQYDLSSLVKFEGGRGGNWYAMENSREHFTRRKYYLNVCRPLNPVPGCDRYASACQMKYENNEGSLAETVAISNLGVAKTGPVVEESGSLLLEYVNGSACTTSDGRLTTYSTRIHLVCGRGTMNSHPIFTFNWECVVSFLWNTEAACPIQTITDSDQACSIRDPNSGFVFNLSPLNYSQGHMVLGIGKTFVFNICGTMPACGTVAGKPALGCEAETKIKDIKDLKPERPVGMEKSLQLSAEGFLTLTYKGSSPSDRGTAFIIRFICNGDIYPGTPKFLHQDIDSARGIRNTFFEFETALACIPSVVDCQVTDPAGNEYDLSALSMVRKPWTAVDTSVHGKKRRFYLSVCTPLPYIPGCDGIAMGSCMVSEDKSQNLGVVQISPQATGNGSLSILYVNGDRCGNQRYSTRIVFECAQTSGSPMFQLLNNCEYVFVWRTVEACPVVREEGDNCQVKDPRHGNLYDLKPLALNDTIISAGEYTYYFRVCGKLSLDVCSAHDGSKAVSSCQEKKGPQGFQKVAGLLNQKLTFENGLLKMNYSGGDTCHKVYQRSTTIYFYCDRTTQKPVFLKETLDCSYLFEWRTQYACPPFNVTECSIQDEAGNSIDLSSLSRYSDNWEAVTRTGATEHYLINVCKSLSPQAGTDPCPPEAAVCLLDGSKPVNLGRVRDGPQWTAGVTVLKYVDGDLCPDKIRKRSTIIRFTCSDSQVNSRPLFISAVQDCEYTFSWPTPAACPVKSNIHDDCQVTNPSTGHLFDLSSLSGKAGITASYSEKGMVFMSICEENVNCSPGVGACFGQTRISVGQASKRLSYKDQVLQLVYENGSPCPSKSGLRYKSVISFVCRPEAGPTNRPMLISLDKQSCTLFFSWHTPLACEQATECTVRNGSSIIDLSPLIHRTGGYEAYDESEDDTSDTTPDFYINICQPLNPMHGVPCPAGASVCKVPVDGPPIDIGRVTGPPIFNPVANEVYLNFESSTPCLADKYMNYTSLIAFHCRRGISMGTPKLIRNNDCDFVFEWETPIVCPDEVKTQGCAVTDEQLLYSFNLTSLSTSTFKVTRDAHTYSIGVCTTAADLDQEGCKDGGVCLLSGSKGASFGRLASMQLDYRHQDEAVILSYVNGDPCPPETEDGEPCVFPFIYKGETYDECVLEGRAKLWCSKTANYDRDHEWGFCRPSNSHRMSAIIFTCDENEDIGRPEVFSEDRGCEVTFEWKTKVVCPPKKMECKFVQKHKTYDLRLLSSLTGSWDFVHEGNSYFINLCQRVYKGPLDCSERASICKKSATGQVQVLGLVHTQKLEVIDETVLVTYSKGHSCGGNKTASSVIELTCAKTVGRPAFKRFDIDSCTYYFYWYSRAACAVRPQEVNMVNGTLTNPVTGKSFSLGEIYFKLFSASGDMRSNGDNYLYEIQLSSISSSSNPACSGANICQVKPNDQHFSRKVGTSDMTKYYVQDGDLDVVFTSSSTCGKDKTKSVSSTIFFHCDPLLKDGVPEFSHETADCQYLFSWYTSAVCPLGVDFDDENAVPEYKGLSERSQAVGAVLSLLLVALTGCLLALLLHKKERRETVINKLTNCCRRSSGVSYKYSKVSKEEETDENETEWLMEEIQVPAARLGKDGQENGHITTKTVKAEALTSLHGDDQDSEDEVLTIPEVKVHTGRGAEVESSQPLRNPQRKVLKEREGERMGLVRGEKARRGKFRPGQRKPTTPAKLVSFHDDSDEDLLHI

Assays:
[1] = test system: P388D1 cells; assay: Morphology, growth and apoptosis of P388D1 cells overexpressing M6P/IGF2R; format: cell-based, mouse
Protocol: FIG. 10 is a graph showing the effect of RA treatment on growth rate of P388D1 cells overexpressing M6P/IGF2R protein and P388D1 controls. Open circles, vector control cells without RA treatment; closed circles, vector control cells with 1 μM RA treatment; open triangles, overexpressing cells without RA treatment; closed triangles overexpressing cells with 1 μM RA treatment.
We examined M6P/IGF2R-mediated effects of RA in mouse macrophage P388D1 cells, which are the best characterized cells that lack the M6P/IGF2R protein.

[2] = test system: neonatal rat cardiac myocytes; assay: Cellular acid phosphatase activity in cultured cardiac myocytes; format: cell-based; conditions: EPA 10 μM
Protocol: FIG. 6. is a graph summarizing data on the effect of RA on cellular acid phosphatase activity. Cultured neonatal rat cardiac myocytes were treated with 2 μM RA at 37° C. for various time, washed and harvested. Cellular proteins were then solubilized by sonication and acid phosphatase activity was assayed using a Diagnostics Acid Phosphatase kit (Sigma). Dotted line represents control cells. Solid line represents RA-treated cells. Bars represent standard error or the mean (n=4).
The primary functions of the Man-6-P/IGF-II receptor are to mediate endocytosis of extracellular M6P-containing proteins (e.g. lysosomal enzymes) and IGF-II and to sort newly synthesized lysosomal enzymes. Therefore, an important question raised by the direct interaction of RA with M6P/IGF2R is whether RA influences these functions of the receptor. To answer this question, we examined the effect of RA on endocytosis of exogenous β-glucuronidase and ^125I-IGF-II and intracellular activity of acid phosphatase in cultured neonatal rat cardiac myocytes, which were known to express high levels of the M6P/IGF-II receptor (Nissley et al., 1993, Mol. Reprod. Dev. 35:408-413). […] This indicated an increased sorting of lysosomal enzymes) (FIGS. 4-6). […] These effects of RA were not altered in the presence of a protein synthesis inhibitor (0.5 mM cycloheximide) and were not observed in the receptor-negative P388D1 cells. […]

[3] = molecular target: T1, M6P/IGF-II receptor (Rattus norvegicus, UniProt G3V824); assay: Endocytosis of exogenous β-glucuronidase in cultured cardiac myocytes; format: cell-based; conditions: EPA 10 μM
T1 construct: cultured neonatal rat cardiac myocytes, which were known to express high levels of the M6P/IGF-II receptor; endogenous in cells; host or cells: primary neonatal rat cardiac myocytes
Protocol: FIG. 4 is a histogram summarizing data on the effect of RA on the endocytosis of exogenous β-glucuronidase. Myocytes were incubated for 2 h at 37°0 C. with 1 ml of MEM containing 10,000 units of human β-glucuronidase, and with or without 5 mM mannose 6-phosphate, in the presence or absence of 2 μM RA. Following the incubation, the internalized human β-glucuronidase was determined as described in the Methods.
(§1) The primary functions of the Man-6-P/IGF-II receptor are to mediate endocytosis of extracellular M6P-containing proteins (e.g. lysosomal enzymes) and IGF-II and to sort newly synthesized lysosomal enzymes. Therefore, an important question raised by the direct interaction of RA with M6P/IGF2R is whether RA influences these functions of the receptor. To answer this question, we examined the effect of RA on endocytosis of exogenous β-glucuronidase and ^125I-IGF-II and intracellular activity of acid phosphatase in cultured neonatal rat cardiac myocytes, which were known to express high levels of the M6P/IGF-II receptor (Nissley et al., 1993, Mol. Reprod. Dev. 35:408-413). […] This indicated an increased sorting of lysosomal enzymes) (FIGS. 4-6). […]
Endocytosis of extracellular β-glucuronidase was determined as described by Kyle et al., 1988, J. Biol. Chem. 263:16230-16235. […]

[4] = molecular target: T2, M6P/IGF2R (300 kDa protein) (Rattus norvegicus, UniProt G3V824); assay: [3H]RA photoaffinity labeling of the 300 kDa protein; format: binding; conditions: 25- to 50-fold molar excess (50 μM) competitor added before photolysis
T2 construct: about 100 μg of proteins of membrane preparations or serum; from tissue; host or cells: membrane preparations of cultured neonatal Sprague-Dawley rat cardiac myocytes
Protocol: Photoaffinity Labeling Photoaffinity labeling was performed essentially according to the methods described in Bernstein et al., 1995, Proc. Natl. Acad. Sci. USA 92:654-658. […] After the ethanol has been evaporated with nitrogen, about 100 μg of proteins of membrane preparations or serum [serum proteins were first concentrated using a Biomax-100K Centrifugal Filter Device (Millipore)] were then added to each tube. The final volume was adjusted to 100 μl with 50 mM Tris buffer (pH 7.4) containing protease inhibitors (5 mM EDTA, 5 mM EGTA, 0.1 mM phenylmethylsulfonyl fluoride, 0.05% NaN3, 20 μg/ml aprotinin, 10 μg/ml benzamidine and 12.5 μg/ml chymostatin) and 50 μM butylated hydroxytoluene (a radical scavenger, used to minimize the non-specific labeling) for a final concentration of 1 μM labeled retinoic acid. The samples were incubated at room temperature with agitation for 1 hour in the dark. The samples were exposed to an intense 365-nm UV light source (Model B 100AP, UPland, CA) for 7 min. […] To remove the non-covalently bound ligands, the photolabeled samples were extracted with chloroform/methanol (2:1), or washed once by centrifugation for membrane samples only).
Fluorography The resultant protein pellets were dissolved in SDS sample buffer containing 5% β-mercapto-ethanol and heated at 100° C. for 5 min. […]

[5] = molecular target: T1, M6P/IGF-II receptor; assay: Internalization of 125I-IGF-II in cultured cardiac myocytes; format: cell-based; conditions: EPA 10 μM
Protocol: FIG. 5 is a histogram summarizing data on the effect of RA on the internalization of ^125I-IGF-II. Assay was performed by incubating cells at […] for 2 h in media (150 mM NaCl, 5 mM KCl, 1.2 mM MgSO4, 8 mM glucose, 100 mM Hepes, pH 7.6) or F-10 culture medium containing ^125I-IGF-II (0.5 ng/ml) with or without excess unlabeled IGF-II (2 μg/ml), in the presence or absence of 2 μM RA. Following the incubation, the cells were washed three times with ice-cold PBS, and cell-associated radioactivity was determined by a gamma counter.
as §1

CC/C=C\C/C=C\C/C=C\C/C=C\C/C=C\CCCC(=O)O [EPA, eicosapentaenoic acid]
Induction of the RA-like effects on morphology, proliferation and apoptosis [1]: not | Cellular accumulation of acid phosphatase [2]: had no such effects | M6P-inhibitable endocytosis of β-glucuronidase [3]: had no such effects | Inhibition of [3H]RA photolabeling/binding to M6P/IGF2R by nonradioactive competitor [4]: did not cross-link to the 300 kDa protein or competitively inhibit | Inhibition of [3H]RA photolabeling/binding to M6P/IGF2R by nonradioactive competitor ([4]; listed as eicosapentaneoic acid): failed to inhibit binding | Internalization of IGF-II [5]: had no such effects
